This series can be described thus: general procedure: peptide synthesis; PyBOP or HBPyU; OSu active esters (DCC/HOSu). The note with it: late stage modification step.

Take “decyldimethylaminopropylamide of N,N-dimethyl-eremomycin”: the step yield is given as 65%.
